According to doi:10.1101/2023.01.03.522548:
These are yes or no findings as the source states them, for the method shown. Binding seen in cells or lysates may run through a third protein. Some entries that bind do so weakly or less than the wild type. For some of these results: Tags and fused reporters may be left off the sequences shown. Each block holds one substance with its values, some of them ahead of it.

Amino acid sequences for entries named in this document (tags omitted).
UniProt Q8N884: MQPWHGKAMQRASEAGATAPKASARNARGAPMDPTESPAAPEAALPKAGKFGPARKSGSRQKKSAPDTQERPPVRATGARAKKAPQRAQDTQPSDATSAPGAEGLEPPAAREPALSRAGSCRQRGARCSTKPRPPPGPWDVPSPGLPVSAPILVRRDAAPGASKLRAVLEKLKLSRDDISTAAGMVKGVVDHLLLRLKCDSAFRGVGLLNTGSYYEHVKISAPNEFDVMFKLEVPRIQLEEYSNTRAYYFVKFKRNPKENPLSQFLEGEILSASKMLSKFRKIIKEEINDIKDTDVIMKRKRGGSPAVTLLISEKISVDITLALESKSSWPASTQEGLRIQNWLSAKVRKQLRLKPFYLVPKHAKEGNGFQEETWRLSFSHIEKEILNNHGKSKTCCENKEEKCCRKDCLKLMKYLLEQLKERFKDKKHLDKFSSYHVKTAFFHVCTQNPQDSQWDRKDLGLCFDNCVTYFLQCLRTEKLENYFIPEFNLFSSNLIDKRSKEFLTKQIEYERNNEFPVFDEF
UniProt Q14258: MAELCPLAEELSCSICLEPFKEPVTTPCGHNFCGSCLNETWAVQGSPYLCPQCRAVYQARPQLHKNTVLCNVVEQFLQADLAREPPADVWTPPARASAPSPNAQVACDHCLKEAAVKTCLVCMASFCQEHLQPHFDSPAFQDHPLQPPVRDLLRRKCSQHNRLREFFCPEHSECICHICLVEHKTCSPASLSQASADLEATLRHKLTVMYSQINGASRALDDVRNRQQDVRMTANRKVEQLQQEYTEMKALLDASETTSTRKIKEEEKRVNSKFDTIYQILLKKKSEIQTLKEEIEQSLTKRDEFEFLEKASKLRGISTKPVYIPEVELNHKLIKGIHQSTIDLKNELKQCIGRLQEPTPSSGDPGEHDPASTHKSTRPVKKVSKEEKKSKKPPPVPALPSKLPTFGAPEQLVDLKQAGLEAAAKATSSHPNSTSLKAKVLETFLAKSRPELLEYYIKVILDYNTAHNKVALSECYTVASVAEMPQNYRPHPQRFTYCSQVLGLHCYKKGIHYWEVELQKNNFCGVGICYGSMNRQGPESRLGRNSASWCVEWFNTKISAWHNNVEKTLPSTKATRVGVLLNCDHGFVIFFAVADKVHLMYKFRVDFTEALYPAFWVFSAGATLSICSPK

Key:
Test in all cases: co-IP
Myc-HERC5 (human) = biological target: T1, Myc-HERC5 (human) (UniProt Q9UII4)
T1 sequence: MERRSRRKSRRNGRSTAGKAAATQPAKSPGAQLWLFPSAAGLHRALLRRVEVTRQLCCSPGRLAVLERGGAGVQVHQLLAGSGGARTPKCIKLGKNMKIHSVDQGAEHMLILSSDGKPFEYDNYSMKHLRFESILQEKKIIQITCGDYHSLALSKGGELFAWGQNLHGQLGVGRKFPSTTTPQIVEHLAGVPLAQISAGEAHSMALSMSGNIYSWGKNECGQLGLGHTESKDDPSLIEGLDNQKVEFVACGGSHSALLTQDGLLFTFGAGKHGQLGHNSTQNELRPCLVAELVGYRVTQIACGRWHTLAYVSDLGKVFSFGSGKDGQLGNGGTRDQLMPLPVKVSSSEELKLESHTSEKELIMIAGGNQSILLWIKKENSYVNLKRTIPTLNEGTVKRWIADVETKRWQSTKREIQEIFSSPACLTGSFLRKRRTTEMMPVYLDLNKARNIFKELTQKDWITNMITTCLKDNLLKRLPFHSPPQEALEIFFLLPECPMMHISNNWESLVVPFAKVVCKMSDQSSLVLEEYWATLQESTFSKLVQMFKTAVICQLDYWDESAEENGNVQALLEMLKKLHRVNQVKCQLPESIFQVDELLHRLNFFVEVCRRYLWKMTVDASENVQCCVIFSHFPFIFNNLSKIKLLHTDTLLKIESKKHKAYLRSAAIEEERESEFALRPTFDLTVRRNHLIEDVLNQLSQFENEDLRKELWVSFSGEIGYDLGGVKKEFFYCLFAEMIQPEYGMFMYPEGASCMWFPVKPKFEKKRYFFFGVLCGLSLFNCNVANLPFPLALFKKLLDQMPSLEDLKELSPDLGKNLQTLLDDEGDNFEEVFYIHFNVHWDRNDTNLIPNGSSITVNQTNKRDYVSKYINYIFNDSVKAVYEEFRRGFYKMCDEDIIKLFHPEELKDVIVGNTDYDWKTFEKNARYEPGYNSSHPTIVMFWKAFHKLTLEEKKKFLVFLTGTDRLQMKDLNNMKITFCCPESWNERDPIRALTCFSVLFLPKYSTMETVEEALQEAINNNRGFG

Flag-cGAS (human) = Flag-cGAS (human) (UniProt Q8N884)
[1] = biological target: T2, Flag-tagged HERC5 (human) (UniProt Q9UII4)
T2 sequence: T1 sequence

[2] = biological target: T3, HERC5 (endogenous, interferon-induced) (human (endogenous in HAEC)) (UniProt Q9UII4)
T3 sequence: T1 sequence

binding (Myc-HERC5 (human)): binds
Substance: Flag-cGAS (from UniProt Q8N884 1-522)

binding (Flag-cGAS (human)): binds weakly
Substance: Myc-EFP (from UniProt Q14258 1-630)

binding [1]: binds
Substance: Myc-cGAS (from UniProt Q8N884 1-522)

binding [2]: binds
Substance: cGAS (endogenous) (from UniProt Q8N884 1-522)
